# Results reported in PubChem BioAssay AID1439 (NMMLSC, 2008).
# Protein sequences, listed by entry. Tags and fused reporters are not part of them.
# UniProt P09471, whole entry, looked up: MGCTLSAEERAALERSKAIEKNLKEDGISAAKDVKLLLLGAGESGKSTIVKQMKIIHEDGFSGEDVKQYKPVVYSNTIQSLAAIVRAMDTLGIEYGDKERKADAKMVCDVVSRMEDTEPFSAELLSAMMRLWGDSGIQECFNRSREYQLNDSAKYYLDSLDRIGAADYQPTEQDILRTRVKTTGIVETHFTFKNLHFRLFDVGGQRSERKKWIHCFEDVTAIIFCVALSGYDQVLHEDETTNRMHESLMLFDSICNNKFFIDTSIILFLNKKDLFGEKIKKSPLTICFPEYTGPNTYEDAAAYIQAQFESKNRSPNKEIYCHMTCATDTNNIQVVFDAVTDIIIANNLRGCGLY
# About 770 (0.35%) of roughly 220,000 compounds were called active. Inconclusive results, whose numbers are uncertain, are shown with a selection of clear calls. Cut-off read from the data, not from the text of the source: active = binding response below about 49% or above about 150%; inconclusive = no clear call, values can overlap the other calls; inactive = in between.
# Target: Guanine nucleotide-binding protein G(o) subunit alpha (Homo sapiens) (UniProt P09471)
# Test: RGS7-Galphao binding modulators, primary screen, biochemical, multiplexed bead flow cytometry (AID 1439);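 note: fluorescent Galphao held in activated GDP-AlF4 state binding bead-coupled RGS7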
# Conditions: at 10 µM, actives lie on both sides
row,SMILES,binding response (% of control)
1,COc1ccc(Cc2nc3ccccc3[nH]2)cc1OC,inactive: 103%
2,CCCNS(=O)(=O)c1ccc(OCC(=O)N2CCOCC2)cc1,inactive: 102%
3,CCOC(=O)C1CCN(C(=O)CSc2ccc(Cl)cc2)CC1,inactive: 55.3%
4,Cn1ncc(Br)c1C(=O)NC12CC3CC(CC(C3)C1)C2,inactive: 101%
5,Cc1cccc(-n2ncc3c(N(C)Cc4ccccc4)ncnc32)c1,inconclusive: 106%
6,CCCC(=O)Nc1ccc(C(=O)NCc2ccccn2)cc1,inconclusive: 109%
7,CC(C)CN(Cc1c(O)ccc2ccccc12)CC(C)C,inconclusive: 100%
8,COC(=O)c1ccccc1NC(=S)N(Cc1ccc2c(c1)OCO2)Cc1cc2cc(C)ccc2[nH]c1=O,inactive: 113%
9,CC(C)Cc1oc(C(=O)O)cc1CN1CCOCC1,inconclusive: 97.8%
10,NC1=NC[C@H](Cc2ccccc2)N1CCc1cc(C(F)(F)F)cc(C(F)(F)F)c1,inconclusive: 111%
11,Cc1noc(C)c1COc1ccc2ccc(=O)oc2c1,inconclusive: 114%
12,C[C@@H]1OC(Nc2ccc(N=Nc3ccccc3)cc2)[C@H](O)[C@H](O)[C@H]1O (some centres undefined),inconclusive: 116%
13,O=c1c2ccccc2c(C=NCCCN2CCOCC2)c(O)n1Cc1ccc2c(c1)OCO2,inconclusive: 112%
14,COc1ccc(NC(=O)Cn2c(CCC(=O)O)ccc2-c2ccc(C)cc2)cc1,inconclusive: 110%
15,CCCS(=O)(=O)Nc1ccc(-c2ccc3nnc(C)n3n2)cc1,inactive: 104%
16,Nc1nc(N)nc(-c2ccccc2-c2nc(N)nc(N)n2)n1,inconclusive: 17.7%
17,CS(=O)(=O)NCCOc1ccc(S(=O)(=O)NCCOc2ccccc2)cc1,inconclusive: 101%
18,COc1ccc(OC)c(NS(=O)(=O)c2ccc(Cl)nc2)c1,inactive: 101%
19,Cc1cccc(C2c3[nH]c4ccccc4c3CCN2C(=O)Cc2n[nH]c(C)n2)n1 (centres undefined),inactive: 100%
20,CC(C)[C@H](NC(=O)NCc1ccc(F)cc1)C(=O)O,inconclusive: 90.4%

row,SMILES,binding response (% of control)
1,Cc1c(NS(=O)(=O)c2ccc(S(=O)(=O)c3ccccc3)s2)c(=O)n(-c2ccccc2)n1C,inconclusive: 90.7%
2,CN(c1ccccc1)S(=O)(=O)c1ccc(C(=O)NCc2ccccn2)cc1,inconclusive: 103%
3,CCN(CC)CCNc1nc(-c2ccco2)c2c(c1C#N)CC(C)(C)OC2,inactive: 107%
4,N#CCCN(Cc1cccs1)C(=O)Nc1ccc(F)cc1,inconclusive: 126%
5,Clc1ccc(C2=NCCN2)cc1,inconclusive: 108%
6,Nc1nccc(-c2cccs2)n1,inconclusive: 90.4%
7,COc1cc(OC)c(OC)cc1/C=C1\CCC(C2CCCC2)C1=O (centres undefined),inconclusive: 130%
8,CNNC(=S)Nc1cccc(C(F)(F)F)c1,inconclusive: 75.4%
9,CC(CN1C(C)CCCC1C)OC(=O)c1ccccc1Cl (centres undefined),inconclusive: 84.9%
10,Cc1ccnn1CC(=O)N/N=C/c1ccc([N+](=O)[O-])s1,inconclusive: 112%
11,CNC(=O)CCCCC(=O)N/N=C/c1ccc(Cl)cc1Cl,inconclusive: 88%
12,CC(C)c1nc2sc(C(=O)O)c(N)c2c2c1CCCC2,inconclusive: 124%
13,O=C(NNc1ccc(Cl)cc1)c1sccc1Cl,inconclusive: 106%
14,Cc1cc(-c2csc(N)n2)c(C)n1Cc1ccco1,inconclusive: 102%
15,CC(C)C(NC(=O)c1ccc(F)cc1)C(=O)NCC1CCCO1 (centres undefined),inconclusive: 116%
16,CC(C)(C)c1nnc(NC(=O)CS(=O)(=O)Cc2ccccc2)s1,inactive: 51.4%
17,CCCC(NC(=O)c1c(C)noc1C)C12CC3CC(CC(C3)C1)C2 (centres undefined),inconclusive: 113%
18,CCn1nc(C)c([N+](=O)[O-])c1C(=O)NNC(=O)c1ccccc1Cl,inconclusive: 79.1%
19,Cc1ccc(NC(=O)Nc2ccc(F)cc2F)c(OC(F)F)c1,inactive: 101%
20,COc1ccc(Cc2nc3c4c(ncn3n2)Oc2c(ccc3ccccc23)C4c2ccc(OC)c(OC)c2)cc1 (centres undefined),inactive: 102%

# At a glance, four of the compounds above:
row,SMILES,binding response (% of control)
6,Nc1nccc(-c2cccs2)n1,inconclusive: 90.4%
7,COc1cc(OC)c(OC)cc1/C=C1\CCC(C2CCCC2)C1=O (centres undefined),inconclusive: 130%
8,CNNC(=S)Nc1cccc(C(F)(F)F)c1,inconclusive: 75.4%
9,CC(CN1C(C)CCCC1C)OC(=O)c1ccccc1Cl (centres undefined),inconclusive: 84.9%

# (next part)

row,SMILES,binding response (% of control)
1,OCCC1CN(Cc2cnn(-c3ccccc3Cl)c2)CCN1Cc1ccsc1 (centres undefined),inconclusive: 115%
2,O=C(Nc1ccc(C(=O)O)cc1)Nc1cccc([N+](=O)[O-])c1,inactive: 121%
3,COc1ccc(CCNC(=O)c2cc(-c3ccncc3)nc3c(Cl)cccc23)cc1OC,inconclusive: 109%
4,CC(C)CCn1nnnc1CN1CCN(C(c2ccccc2)c2ccccc2)CC1,inconclusive: 117%
5,Cc1ccc(COc2ccc(/C=N/NC(=O)c3nnn(-c4nonc4N)c3COc3ccc(F)cc3)cc2)cc1,inconclusive: 96.1%
6,O=C(c1ccccc1SCc1ccccc1)N1CCCCCC1,inconclusive: 86.9%
7,O=C(COn1nnc2ccccc21)N1CCN(Cc2ccccc2)CC1,inactive: 96.3%
8,O=S(=O)(Oc1ccccc1N1CCCCC1)c1ccccc1,inconclusive: 124%
9,CCc1ccc2c(CN3CCN(S(=O)(=O)c4cccs4)CC3)cc(=O)oc2c1,inactive: 104%
10,CCCCN1C(=O)C(=O)N(CC(=O)NC2CCCc3ccccc32)C1=O (centres undefined),inconclusive: 84.2%
11,COc1cccc(Nc2nc3ccc(C(=O)c4ccccc4)cc3n3cnnc23)c1,inconclusive: 107%
12,Cc1ccc(NS(=O)(=O)c2ccc3[nH]c(=O)c(=O)[nH]c3c2)cc1Cl,inconclusive: 96.1%
13,CCN1CCN(S(=O)(=O)CC2(C)C3CCC2(C)C(=O)C3Br)CC1 (centres undefined),inconclusive: 97.3%
14,Cn1c(/C(C#N)=C/c2ccc(O)cc2)nc2ccccc21,inconclusive: 163%
15,O=[N+]([O-])c1ccc(SCCO)nc1SCCO,inconclusive: 146%
16,COc1cccc(-n2nc(C(=O)N3CCN(Cc4ccccc4)CC3)c3ccccc3c2=O)c1,inactive: 98.7%
17,CCN(CC)CCN(C(=O)Cn1nnc(-c2ccc(C)o2)n1)C(C(=O)NC(C)(C)C)c1cccs1 (centres undefined),inactive: 106%
18,NC(=O)COC(=O)/C=C/c1cccc(Br)c1,inconclusive: 94.2%
19,O=C1/C(=C/c2ccco2)SC(=S)N1c1cccnc1,inconclusive: 45.4%
